Measurements from publication PMC13186993.

Protein sequences, listed by entry. Tags and fused reporters are not part of them. Lines headed by an entry give the natural chain unless they say otherwise; changes in a name come on top.
UniProt A0A0G2Y717: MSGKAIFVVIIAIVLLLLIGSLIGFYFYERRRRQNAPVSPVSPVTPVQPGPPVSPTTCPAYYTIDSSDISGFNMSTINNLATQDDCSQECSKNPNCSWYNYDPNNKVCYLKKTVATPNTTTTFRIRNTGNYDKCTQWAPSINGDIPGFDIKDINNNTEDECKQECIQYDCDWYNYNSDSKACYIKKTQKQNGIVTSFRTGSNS

T1: mimivirus L323, endogenously tagged with C-terminal 3xHA (Acanthamoeba polyphaga mimivirus)
T1 sequence: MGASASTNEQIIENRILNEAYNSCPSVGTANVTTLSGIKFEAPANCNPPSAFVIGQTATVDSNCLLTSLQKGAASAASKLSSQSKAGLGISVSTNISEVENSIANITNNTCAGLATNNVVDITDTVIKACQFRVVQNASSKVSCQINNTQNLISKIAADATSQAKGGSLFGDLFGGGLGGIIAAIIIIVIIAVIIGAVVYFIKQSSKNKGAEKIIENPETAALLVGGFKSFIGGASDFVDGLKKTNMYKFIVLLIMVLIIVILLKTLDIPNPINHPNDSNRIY

B1: mimivirus R557 (protein, UniProt A0A0G2Y5V0 1-160)
chain: MSQVTGFDQSNVAQYSSFDPLGSLEHAGSNLGNFIQRNNPFPSLSQSASHTFDDVRSDSGKIFDELKSEADKFYDDAKHGLSDIDYRDFYASDPGNTVLRASMQSPYLNSYMDINNAPNVIPLQAPPIVTNRNSKDYNILFVVVILLLLFVAWRCYVNKR
B2: mimivirus L778 (protein, UniProt A0A0G2Y8Z7 1-257)
chain: MSAIRYGDNVFITLPRLSTPMIFNGLVPHYTKPNQYEYVPILSSGSIANGDSYIIEPININNSNTALNPQSVFRLKQVSQNKYLYDNNGIVYLGNDTDNKANWSLKPVNLNATTIDYNQEFRLVNQGTGNNAVFSTINNVTMITSKYNDTTNNSIFKFLKGPFTYAQSQCCQGNILYTRPNMCGIYKQGSSVCHTIPSSQSNYPSYTTSMVGSTQSTTPVGSNPPTHRSIDKWYIIGGIFWVIVLIILVIFIIWKLK
B3: mimivirus L65 (protein, UniProt E3VY52 1-355)
chain: MQKKVLFNDIVFVCFPITDNGSIIISDIGYSDDGYNRPTGRQGTIENGDPYRITVPAGYSYTNKNVQNGNMIRLVRVNDSKNGCWYNGSGDGWLEIRDYVGPDWRADWTVQIINPANNDNSLYYGQHFRLMNRAQVENPTFQGPSDFASIALWGSNNTNNSVMMLLNGPLDTAKLECCKDNPIFTQPDYCANYRGTTCSGQCDDILSNYCAQVTTTDPKCGCLLPASFYTQNSAIGPPECIDDRCVDTNSYRKSTQCHPNCQIVDCDININDFNGTNINKIVYEQECGSKSTPNGPNGPTPTPSNGPNGPTPVPGIPPANGSSTSFFSRYGLWIIIAIILLIVIISAVGIYFYLR
B4: mimivirus R486 (protein, UniProt E3VYF9 1-223)
chain: MSQTAIIIWIVVIIILLVLGGLGAYFFYSRYRHRKNIPPTPINPPSSITPIQPINPPSSITPIQPSGPPSGGNHPIPASCPAYQLVNNKAITLVPLPADTSNVKNAQDCQNLCTQNPDCYFYNYVGLFDGCSLMQGTVDNNVMTGFAIRGSEDGCPKWARYNTSIQGFNTGNPSNVESEEKCQQLCQQNSSCDWYTYDIGKKTCTLNKAIDFNTSTLGIKMPH

Key:
[1] = molecular target: T1, mimivirus L323, endogenously tagged with C-terminal 3xHA (Acanthamoeba polyphaga mimivirus); experiment: affinity purification with mass spectrometry; A. castellanii infected with mimivirus expressing the HA-tagged bait (MOI 10), harvested 6 hpi, cross-linked with 4% formaldehyde, lysed in RIPA buffer pH 8.0, anti-HA magnetic beads; label-free MS against cells infected with wild-type mimivirus, biological triplicates
[2] = molecular target: T1, mimivirus L323, endogenously tagged with C-terminal 3xHA (Acanthamoeba polyphaga mimivirus); experiment: as above; remark: listed apart in the source

Molecule	binding [1]	binding [2]
mimivirus L775 (from UniProt A0A0G2Y717)	binds	–
B1	–	binds
B2	–	binds
B3	–	binds
B4	–	binds

Like-named read-outs stand apart in the source and are kept apart here. No constants are given. Whether binding was seen depends on the method and setting. In cells and extracts the contact can be indirect. Here binding means that the protein was enriched with, or labelled near, the bait; the list need not be complete. Tags and fused reporters may be left off the sequences shown.
